Source: PubChem BioAssay AID230 (DTP/NCI, 2004)
The list is a part of this screen's results and no random one: it gathers some chemical classes. Not every dose and run of a compound is shown. T/C gives the treated animals as a percentage of the vehicle group. Where survival is the endpoint, the PubChem record calls one and a half times the control and up active, and a quarter to a half above the control has no call in these data; cut-offs in other NCI protocols can differ. Some entries show no survivor count and are marked so; the dose need not have been tolerated. Schedule codes are those of the source, taken here to give the interval after Q, in days (D) or hours (H), and the number of doses after X.

System: C3H/He mice, Gardner lymphosarcoma 6C3HED ip, survival T/C
Assay: NCI In Vivo Anticancer Drug Screen. Data for tumor model Lymphosarcoma Gardner 6C3HED (intraperitoneal) in C3H/He mice
Conditions: T/C endpoint: survival time, mean or median, schedule: Q01DX010 (ip), vehicle: saline, higher T/C = longer survival
Method: The antitumor activity of compounds was measured in mice bearing transplantable tumors. Survival or tumor size were measured and the results are expressed as the measurement made in the treated group (T) divided by the measurement made in the vehicle treated control group (C). The tumor model used in this assay is Lymphosarcoma Gardner 6C3HED (intraperitoneal) in C3H/He mice

## CN(CCCl)CCCl
dose: 0.06 mg/kg/injection
  T/C: 133 % of control [survivor count not shown]
dose: 0.13 mg/kg/injection
  T/C: 166 % of control [survivor count not shown]
dose: 0.25 mg/kg/injection
  T/C: 223 % of control [survivor count not shown]
dose: 0.5 mg/kg/injection
  T/C: 180 % of control [survivor count not shown]
